Results as given in US20240094229A1, “CRISPR-CAS /TRANSCRIPTION FACTOR-BASED COMPETITION ASSAY FOR DETECTION OF MOLECULAR ANALYTES” (Arizona Board of Regents on Behalf of Arizona State …, priority 2022, published 2024).
At least one structure is not confirmed: it was looked up by name or label, or the drawing left a doubt.

How the values were obtained:
[1] = Detection of doxycycline in different water sources (Cas12a cleavage fluorescence); assay type: biochemical; conditions: ultrapure water, ground water, wastewater and tap water (all 4 samples); 3 times the standard deviation of the small molecule negative sample; n=4
[2] = ROSALIND assays; cited from earlier work

For `C[C@H]1c2cccc(O)c2C(=O)C2=C(O)[C@]3(O)C(=O)C(C(N)=O)=C(O)[C@@H](N(C)C)[C@@H]3[C@@H](O)[C@@H]21` [Doxy, doxycycline], which detection limit [1] is on record?
Its detection limit is 50 nM.

What about the LOD [2] of the same compound?
Its LOD is 0.2 µM.
